PubChem BioAssay AID1159578 | Peter MacCallum Cancer Centre – 2015
In all, the deposit lists about 18,000 reagents; shown is a random part of them. In the full data, about 1,030 (5.7%) got an active call. 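Inactive calls also include pools with fewer than 3300 nuclei, whose migration was not assessed.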 Raw values vary from plate to plate and are shown uncorrected. A number with no mark means an inactive call. No sequences are given here.

- Assay: 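Genome-wide hunt for genes controlling movement of lymphatic endothelial cells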 (primary screen)
- Cells: human lymphatic endothelial cells
- Reagents: siRNA pool against human genes, 40 nM
- Duration: 48 h after transfection
- Detection: 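High-content imaging of dye-stained cells in a scratch assay measures filled wound area and nuclei per well; duplicate means given as ratio to mock and robust z-score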
- Direction: migration robust z-score: higher = faster migration into the scratch; migration relative to mock: higher = more scratch area covered than mock; nuclei per well: higher = more cells in the well
- Active means: 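Migration changed when robust z exceeds 2 or falls below -2 and mean nuclei number is at least 3300; otherwise not called changed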
- Meaning of the calls: active = migration changed; inactive = no migration change, or too few cells

target gene | migration robust z-score | migration class with cell-count check | migration relative to mock | nuclei per well, duplicate mean
AREG | -0.9 | migration z between -2 and 2; enough cells | 0.63 | 4414
RSRP1 | -0.24 | migration z between -2 and 2; enough cells | 0.82 | 5926
FLT3LG | 0.29 | migration z between -2 and 2; enough cells | 0.96 | 5840
DLST | 0.39 | migration z between -2 and 2; enough cells | 0.88 | 6306
TTBK1 | -1.27 | migration z between -2 and 2; enough cells | 0.56 | 4830
RUSF1 | 0.64 | migration z between -2 and 2; enough cells | 1.05 | 5221
CCDC8 | -0.3 | migration z between -2 and 2; enough cells | 0.81 | 5691
NCAN | -2.08 (active) | migration z below -2; enough cells | 0.34 | 5218
AOC2 | -0.52 | migration z between -2 and 2; enough cells | 0.75 | 6503
IHH | -0.15 | migration z between -2 and 2; enough cells | 0.77 | 5834
BCL9L | -0.04 | migration z between -2 and 2; enough cells | 0.87 | 5360
ING4 | 2.04 (active) | migration z above 2; enough cells | 1.42 | 6128
ANKRD20A5P | 0.36 | migration z between -2 and 2; enough cells | 0.98 | 5718
CGN | 3.08 (active) | migration z above 2; enough cells | 1.68 | 6452
NCF4 | 0.45 | migration z between -2 and 2; enough cells | 1 | 5068
TRAPPC10 | -0.16 | migration z between -2 and 2; enough cells | 0.84 | 6544
PRSS33 | 0.36 | migration z between -2 and 2; enough cells | 0.88 | 5955
RIN1 | 1.08 | migration z between -2 and 2; enough cells | 1.17 | 5331
CAP1 | -0.15 | migration z between -2 and 2; enough cells | 0.84 | 6772
MDH1 | -2.73 (active) | migration z below -2; enough cells | 0.28 | 3512
ITGA1 | -1.29 | migration z between -2 and 2; enough cells | 0.54 | 5691
EDEM2 | 1.5 | migration z between -2 and 2; enough cells | 1.1 | 6072
ATG4B | 0.47 | migration z between -2 and 2; enough cells | 0.89 | 5110
OAZ3 | 0.62 | migration z between -2 and 2; enough cells | 0.92 | 5352
GNRH1 | -0.08 | migration z between -2 and 2; enough cells | 0.86 | 6632
SLC31A1 | -2.18 (active) | migration z below -2; enough cells | 0.38 | 4162
NMNAT2 | -1.32 | migration z between -2 and 2; enough cells | 0.55 | 4846
KRTAP19-5 | 0 | migration z between -2 and 2; enough cells | 0.88 | 5124
OXCT2 | -0.67 | migration z between -2 and 2; enough cells | 0.68 | 4586
SIRPD | 1.81 | migration z between -2 and 2; enough cells | 1.36 | 6060
ADAMTS16 | -0.08 | migration z between -2 and 2; enough cells | 0.79 | 5592
HENMT1 | -0.12 | migration z between -2 and 2; enough cells | 0.86 | 5957
MOG | -0.73 | migration z between -2 and 2; enough cells | 0.7 | 4898
HCFC1 | 0.36 | migration z between -2 and 2; enough cells | 0.88 | 6214
TTLL4 | 0.48 | migration z between -2 and 2; enough cells | 1.01 | 6842
LRCH4 | 0.65 | migration z between -2 and 2; enough cells | 1.06 | 5972
RSPH10B | 0.4 | migration z between -2 and 2; enough cells | 0.99 | 6058
ZNF229 | 1.64 | migration z between -2 and 2; enough cells | 1.31 | 4852
SRRM4 | 0.28 | migration z between -2 and 2; enough cells | 0.96 | 5484
CYB5R2 | -1.68 | migration z between -2 and 2; enough cells | 0.48 | 6122
AKR1C2 | -0.16 | migration z between -2 and 2; enough cells | 0.78 | 6007
C20orf204 | -1.52 | migration z between -2 and 2; enough cells | 0.49 | 6721
EMC3 | -0.99 | migration z between -2 and 2; enough cells | 0.63 | 6220
SPRR4 | -0.5 | migration z between -2 and 2; enough cells | 0.75 | 5674
THOC3 | -0.11 | migration z between -2 and 2; enough cells | 0.86 | 5124
GREM2 | 0.03 | migration z between -2 and 2; enough cells | 0.89 | 4604
ZC3H11D | 0.94 | migration z between -2 and 2; enough cells | 1.13 | 5726
FGGY | -0.1 | migration z between -2 and 2; enough cells | 0.86 | 8081
PTH1R | -0.24 | migration z between -2 and 2; enough cells | 0.76 | 4878
SUGT1P4-STRA6LP-CCDC180 | -0.34 | migration z between -2 and 2; enough cells | 0.79 | 4912
TLE6 | 0.26 | migration z between -2 and 2; enough cells | 0.95 | 4460
VCX3B | 1.27 | migration z between -2 and 2; enough cells | 1.21 | 6967
METTL15 | -1.26 | migration z between -2 and 2; enough cells | 0.56 | 5744
ARHGAP30 | -0.19 | migration z between -2 and 2; enough cells | 0.84 | 7322
PPP4R4 | 0.5 | migration z between -2 and 2; enough cells | 1.02 | 4384
SNAPC3 | -1.5 | migration z between -2 and 2; enough cells | 0.5 | 6076
MDH2 | -0.6 | migration z between -2 and 2; enough cells | 0.69 | 6624

Taken from above.
Entry for RIN1 under “nuclei per well, duplicate mean”: 5331
Result for MDH1 under “nuclei per well, duplicate mean”: 3512 (active)
For “migration class with cell-count check”, CAP1 is entered as migration z between -2 and 2; enough cells
Value for MOG under “nuclei per well, duplicate mean”: 4898
Value of ZNF229 under “nuclei per well, duplicate mean”: 4852
Result of CGN under “migration robust z-score”: 3.08 (active)
